The supplement of paper PMC10849652
The other results are listed elsewhere or left out.

Sequences of proteins named here, by UniProt entry; tags and fusion partners are left off. A change or cut given only in a name is not applied to a line headed by its entry.
UniProt Q15599: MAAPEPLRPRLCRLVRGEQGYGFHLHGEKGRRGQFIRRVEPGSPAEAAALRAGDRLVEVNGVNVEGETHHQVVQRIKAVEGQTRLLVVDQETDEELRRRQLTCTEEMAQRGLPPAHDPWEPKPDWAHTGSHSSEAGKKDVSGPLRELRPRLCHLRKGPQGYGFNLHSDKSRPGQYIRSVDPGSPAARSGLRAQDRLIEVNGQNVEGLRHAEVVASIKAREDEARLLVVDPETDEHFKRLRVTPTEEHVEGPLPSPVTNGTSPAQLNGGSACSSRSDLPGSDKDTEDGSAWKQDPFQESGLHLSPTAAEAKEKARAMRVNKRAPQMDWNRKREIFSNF
UniProt Q15043: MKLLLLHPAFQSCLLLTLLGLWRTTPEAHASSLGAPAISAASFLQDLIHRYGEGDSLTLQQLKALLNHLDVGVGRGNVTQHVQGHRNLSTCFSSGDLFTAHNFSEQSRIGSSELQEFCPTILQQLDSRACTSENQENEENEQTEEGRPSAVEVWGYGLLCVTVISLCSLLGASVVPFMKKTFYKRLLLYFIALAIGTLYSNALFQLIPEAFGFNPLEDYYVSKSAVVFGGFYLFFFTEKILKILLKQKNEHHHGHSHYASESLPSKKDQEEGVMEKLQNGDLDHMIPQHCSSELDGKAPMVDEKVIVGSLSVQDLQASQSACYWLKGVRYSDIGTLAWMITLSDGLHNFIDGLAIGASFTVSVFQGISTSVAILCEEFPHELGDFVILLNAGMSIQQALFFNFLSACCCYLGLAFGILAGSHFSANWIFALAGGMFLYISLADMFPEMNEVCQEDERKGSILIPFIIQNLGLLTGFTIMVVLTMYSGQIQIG
UniProt Q9BXS9: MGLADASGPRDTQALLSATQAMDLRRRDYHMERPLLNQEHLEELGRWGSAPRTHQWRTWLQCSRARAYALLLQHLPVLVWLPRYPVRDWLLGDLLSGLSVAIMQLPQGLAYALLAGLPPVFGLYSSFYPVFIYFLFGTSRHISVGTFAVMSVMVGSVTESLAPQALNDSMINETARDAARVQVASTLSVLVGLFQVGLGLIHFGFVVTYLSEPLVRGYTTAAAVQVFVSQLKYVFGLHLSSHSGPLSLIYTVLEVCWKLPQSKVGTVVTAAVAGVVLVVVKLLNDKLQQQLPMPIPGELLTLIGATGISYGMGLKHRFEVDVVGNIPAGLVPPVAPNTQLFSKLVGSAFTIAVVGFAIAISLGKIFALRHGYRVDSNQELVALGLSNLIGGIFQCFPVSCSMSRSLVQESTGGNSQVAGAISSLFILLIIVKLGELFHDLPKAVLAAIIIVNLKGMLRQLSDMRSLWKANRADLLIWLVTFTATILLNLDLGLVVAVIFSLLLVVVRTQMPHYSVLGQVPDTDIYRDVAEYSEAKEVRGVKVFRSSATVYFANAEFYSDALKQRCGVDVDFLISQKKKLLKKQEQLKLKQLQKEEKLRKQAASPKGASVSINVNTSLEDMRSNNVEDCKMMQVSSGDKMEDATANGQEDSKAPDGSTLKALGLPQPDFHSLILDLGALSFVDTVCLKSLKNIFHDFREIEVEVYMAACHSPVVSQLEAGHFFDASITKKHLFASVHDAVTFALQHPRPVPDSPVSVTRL
UniProt Q9H2D1: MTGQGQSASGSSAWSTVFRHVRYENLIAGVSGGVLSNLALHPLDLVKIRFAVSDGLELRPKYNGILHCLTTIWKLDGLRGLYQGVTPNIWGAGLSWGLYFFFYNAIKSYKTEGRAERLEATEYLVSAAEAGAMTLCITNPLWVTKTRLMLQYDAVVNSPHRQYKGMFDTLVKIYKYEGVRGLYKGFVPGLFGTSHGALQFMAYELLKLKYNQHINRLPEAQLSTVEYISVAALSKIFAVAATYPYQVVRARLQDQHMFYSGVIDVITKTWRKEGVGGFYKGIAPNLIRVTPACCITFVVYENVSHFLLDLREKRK
UniProt P78381: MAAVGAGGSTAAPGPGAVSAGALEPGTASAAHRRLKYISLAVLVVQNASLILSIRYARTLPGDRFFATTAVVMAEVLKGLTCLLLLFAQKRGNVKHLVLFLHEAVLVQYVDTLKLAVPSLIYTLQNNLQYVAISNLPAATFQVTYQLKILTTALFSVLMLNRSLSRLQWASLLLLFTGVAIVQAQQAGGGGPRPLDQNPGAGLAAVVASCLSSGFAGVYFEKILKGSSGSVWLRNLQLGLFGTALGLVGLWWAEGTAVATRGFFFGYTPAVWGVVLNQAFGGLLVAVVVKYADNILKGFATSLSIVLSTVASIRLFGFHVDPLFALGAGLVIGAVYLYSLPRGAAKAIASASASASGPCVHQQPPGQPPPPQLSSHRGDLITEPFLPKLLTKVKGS
UniProt Q92536: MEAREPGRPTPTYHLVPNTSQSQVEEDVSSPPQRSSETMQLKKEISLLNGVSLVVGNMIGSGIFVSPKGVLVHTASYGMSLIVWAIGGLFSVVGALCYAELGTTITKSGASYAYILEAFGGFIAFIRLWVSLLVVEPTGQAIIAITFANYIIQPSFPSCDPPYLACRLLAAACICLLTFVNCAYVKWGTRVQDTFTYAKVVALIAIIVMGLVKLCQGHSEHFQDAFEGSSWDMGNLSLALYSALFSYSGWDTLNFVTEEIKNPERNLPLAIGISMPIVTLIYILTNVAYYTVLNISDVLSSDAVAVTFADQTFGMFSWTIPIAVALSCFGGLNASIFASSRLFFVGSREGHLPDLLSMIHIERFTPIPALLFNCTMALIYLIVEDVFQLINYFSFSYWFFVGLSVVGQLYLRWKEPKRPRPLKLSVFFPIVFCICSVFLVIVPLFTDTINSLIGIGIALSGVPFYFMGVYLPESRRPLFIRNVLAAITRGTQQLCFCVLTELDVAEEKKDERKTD
UniProt P04920: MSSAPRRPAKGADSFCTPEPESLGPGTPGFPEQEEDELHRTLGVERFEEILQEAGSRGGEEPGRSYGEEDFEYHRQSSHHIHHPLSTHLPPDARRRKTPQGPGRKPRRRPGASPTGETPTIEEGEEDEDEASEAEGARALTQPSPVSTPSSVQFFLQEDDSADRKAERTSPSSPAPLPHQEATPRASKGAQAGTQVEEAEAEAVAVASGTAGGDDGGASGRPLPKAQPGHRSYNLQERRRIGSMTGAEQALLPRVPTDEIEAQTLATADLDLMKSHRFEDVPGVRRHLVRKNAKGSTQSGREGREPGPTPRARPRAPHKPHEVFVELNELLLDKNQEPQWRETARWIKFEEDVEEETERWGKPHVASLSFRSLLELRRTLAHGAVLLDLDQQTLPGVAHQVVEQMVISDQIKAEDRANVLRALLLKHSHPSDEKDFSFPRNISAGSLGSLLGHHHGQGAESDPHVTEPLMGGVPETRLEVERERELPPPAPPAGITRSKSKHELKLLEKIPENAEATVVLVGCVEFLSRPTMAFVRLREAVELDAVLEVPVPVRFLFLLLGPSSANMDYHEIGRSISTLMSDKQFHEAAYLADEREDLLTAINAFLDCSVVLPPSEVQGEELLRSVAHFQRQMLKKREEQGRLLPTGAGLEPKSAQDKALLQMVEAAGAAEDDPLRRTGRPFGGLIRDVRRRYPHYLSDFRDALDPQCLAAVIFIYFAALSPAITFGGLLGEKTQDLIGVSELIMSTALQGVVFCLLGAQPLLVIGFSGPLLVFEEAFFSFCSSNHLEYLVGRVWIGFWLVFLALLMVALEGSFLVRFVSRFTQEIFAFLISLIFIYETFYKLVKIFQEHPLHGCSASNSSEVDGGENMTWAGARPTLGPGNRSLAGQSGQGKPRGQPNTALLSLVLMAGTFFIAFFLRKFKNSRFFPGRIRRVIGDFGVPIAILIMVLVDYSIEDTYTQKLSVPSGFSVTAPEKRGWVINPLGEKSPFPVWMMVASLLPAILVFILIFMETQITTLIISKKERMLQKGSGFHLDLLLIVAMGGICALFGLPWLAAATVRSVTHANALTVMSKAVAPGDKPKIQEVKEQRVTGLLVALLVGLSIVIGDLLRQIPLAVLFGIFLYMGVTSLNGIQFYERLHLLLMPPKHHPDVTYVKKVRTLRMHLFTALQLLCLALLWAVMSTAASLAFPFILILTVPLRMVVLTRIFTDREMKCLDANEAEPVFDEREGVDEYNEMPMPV
UniProt Q15796, whole entry, looked up: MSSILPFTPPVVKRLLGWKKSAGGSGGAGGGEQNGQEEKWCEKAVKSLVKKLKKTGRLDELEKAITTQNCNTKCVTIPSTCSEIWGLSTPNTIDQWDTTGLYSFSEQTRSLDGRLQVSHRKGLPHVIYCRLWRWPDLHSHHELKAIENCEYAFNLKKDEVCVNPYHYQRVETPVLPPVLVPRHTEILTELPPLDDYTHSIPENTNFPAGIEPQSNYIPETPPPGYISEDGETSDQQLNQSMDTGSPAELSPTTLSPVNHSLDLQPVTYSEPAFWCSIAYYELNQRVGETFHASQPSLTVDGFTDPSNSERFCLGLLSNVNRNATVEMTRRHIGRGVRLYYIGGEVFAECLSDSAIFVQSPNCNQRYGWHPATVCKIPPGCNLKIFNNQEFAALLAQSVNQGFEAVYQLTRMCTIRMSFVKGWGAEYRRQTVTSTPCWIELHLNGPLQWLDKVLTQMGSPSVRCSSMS
UniProt Q9HBR0: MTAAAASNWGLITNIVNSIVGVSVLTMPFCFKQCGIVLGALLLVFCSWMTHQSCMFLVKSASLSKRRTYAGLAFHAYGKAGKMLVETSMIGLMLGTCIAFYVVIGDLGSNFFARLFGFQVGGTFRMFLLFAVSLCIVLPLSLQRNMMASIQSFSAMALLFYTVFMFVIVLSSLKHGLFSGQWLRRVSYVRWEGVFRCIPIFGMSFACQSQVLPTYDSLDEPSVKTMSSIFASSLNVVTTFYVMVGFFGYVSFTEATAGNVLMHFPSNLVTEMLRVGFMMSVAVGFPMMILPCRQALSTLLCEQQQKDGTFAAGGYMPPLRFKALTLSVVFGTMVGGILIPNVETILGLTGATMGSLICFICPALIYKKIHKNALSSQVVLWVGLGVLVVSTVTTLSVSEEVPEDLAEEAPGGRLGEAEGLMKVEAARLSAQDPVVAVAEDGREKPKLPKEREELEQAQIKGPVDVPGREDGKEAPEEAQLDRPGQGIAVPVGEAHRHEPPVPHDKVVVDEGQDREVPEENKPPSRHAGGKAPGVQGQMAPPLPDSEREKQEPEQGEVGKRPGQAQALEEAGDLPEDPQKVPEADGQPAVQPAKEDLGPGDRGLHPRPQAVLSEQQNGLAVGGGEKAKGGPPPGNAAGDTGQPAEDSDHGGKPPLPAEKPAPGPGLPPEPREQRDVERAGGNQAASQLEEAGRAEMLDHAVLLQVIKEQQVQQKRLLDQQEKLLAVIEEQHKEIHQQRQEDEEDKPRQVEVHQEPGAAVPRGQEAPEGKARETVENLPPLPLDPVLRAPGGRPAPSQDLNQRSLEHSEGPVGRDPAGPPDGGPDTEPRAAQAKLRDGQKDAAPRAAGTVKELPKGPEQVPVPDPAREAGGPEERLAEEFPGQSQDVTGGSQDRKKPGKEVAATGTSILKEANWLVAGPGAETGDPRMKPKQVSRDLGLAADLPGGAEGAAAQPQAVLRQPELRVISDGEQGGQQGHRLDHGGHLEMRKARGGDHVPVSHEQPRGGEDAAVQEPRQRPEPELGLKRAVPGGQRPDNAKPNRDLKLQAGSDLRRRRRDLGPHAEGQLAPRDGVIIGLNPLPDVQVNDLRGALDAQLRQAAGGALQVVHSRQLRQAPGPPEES
UniProt Q8WU79: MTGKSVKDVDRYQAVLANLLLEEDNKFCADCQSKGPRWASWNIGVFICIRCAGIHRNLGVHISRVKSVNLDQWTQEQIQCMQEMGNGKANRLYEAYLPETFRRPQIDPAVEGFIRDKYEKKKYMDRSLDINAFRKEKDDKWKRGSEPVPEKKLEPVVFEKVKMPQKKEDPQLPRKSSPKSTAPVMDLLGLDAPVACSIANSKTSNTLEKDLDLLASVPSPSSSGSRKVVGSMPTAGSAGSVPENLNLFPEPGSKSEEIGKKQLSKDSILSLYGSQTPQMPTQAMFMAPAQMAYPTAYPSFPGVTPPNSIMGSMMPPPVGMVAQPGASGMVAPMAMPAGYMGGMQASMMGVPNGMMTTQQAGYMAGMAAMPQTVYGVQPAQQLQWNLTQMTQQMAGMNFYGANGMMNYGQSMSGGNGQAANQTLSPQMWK
UniProt Q9H936: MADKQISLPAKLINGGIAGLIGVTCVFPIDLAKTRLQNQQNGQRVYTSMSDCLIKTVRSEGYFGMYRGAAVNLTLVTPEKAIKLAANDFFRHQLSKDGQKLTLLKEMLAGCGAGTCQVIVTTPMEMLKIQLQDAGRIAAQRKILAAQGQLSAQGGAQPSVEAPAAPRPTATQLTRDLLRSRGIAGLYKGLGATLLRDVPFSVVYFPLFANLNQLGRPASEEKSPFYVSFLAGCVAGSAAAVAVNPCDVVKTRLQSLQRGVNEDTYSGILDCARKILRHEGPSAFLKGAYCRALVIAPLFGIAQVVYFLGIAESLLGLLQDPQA

How the values were obtained:
Assay in all cases: log2 fold change, soluble protein after heating vs DMSO (PISA); higher = thermal stabilisation; K562 lysate, 10 uM; active = over 0.2 and 3.5 SD of the protein, either way, in both replicates (recomputed)
[1] = compound: CN1CC[C@H](c2c(O)cc(O)c3c(=O)cc(-c4ccccc4Cl)oc23)[C@H](O)C1 [alvocidib]
Summary of the method: (§1)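 Quantification was by TMTpro 16plex LC-MS/MS with equalised channel sums, applied to the supernatant after 21,000xg for 90 min. Samples were crude K562 extract at 1 mg/mL protein in PBS pH 7.4 with 1 mM MgCl2, treated with 10 μM compound for 30 min, heated for 3 min across 48°C-58°C, pooled and brought to 0.5% NP-40 at 4°C. Values are log-two fold changes in thermal stability relative to solvent controls, from duplicates.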

[2] = compound: CN1CCc2c(c3ccccc3n2Cc2ccc(C(=O)NO)cc2)C1 [Tubastatin A]
Summary of the method: as §1

[3] = compound: CNC(=O)C1=CC=CC=C1NC2=NC(=NC=C2Cl)NC3=C(C=C(C=C3)N4CCOCC4)OC
Summary of the method: as §1

[4] = compound: CNC(=O)c1ccc(Nc2ncc(C(F)(F)F)c(NCc3nccnc3N(C)S(C)(=O)=O)n2)cc1 [defactinib]
Summary of the method: as §1

[5] = compound: CNc1nc(-c2ccc3c(N)n[nH]c3c2)cc(N2C[C@@H](C(=O)NC3CCCCC3)CC[C@H]2C)n1
Summary of the method: as §1

[6] = compound: COC(=O)N[C@@H](C)CNc1nccc(-c2cn(C(C)C)nc2-c2cc(Cl)cc(NS(C)(=O)=O)c2F)n1 [encorafenib]
Summary of the method: as §1

[7] = compound: COC(=O)[C@H](CCSC)NC(=O)C1=C(C=C(C=C1)NC[C@H](CS)N)C2=CC=CC=C2
Summary of the method: as §1

[8] = compound: COc1cc(Nc2ncc3c(n2)-c2ccc(Cl)cc2C(c2c(F)cccc2OC)=NC3)ccc1C(=O)O [alisertib]
Summary of the method: as §1

[9] = compound: COc1cc2nc(-c3cc(F)ccc3O)nc(N[C@@H]3CNC[C@H]3C(C)(C)O)c2cc1OC
Summary of the method: as §1

[10] = compound: COc1cc2ncnc(Nc3ccc(F)c(Cl)c3)c2cc1OCCCN1CCOCC1 [gefitinib]
Summary of the method: as §1

[11] = compound: CS(=O)(=O)CCNCc1ccc(-c2ccc3ncnc(Nc4ccc(OCc5cccc(F)c5)c(Cl)c4)c3c2)o1 [lapatinib]
Summary of the method: as §1

[12] = compound: CS(=O)(=O)N1CCN(Cc2cc3nc(-c4cccc5[nH]ncc45)nc(N4CCOCC4)c3s2)CC1 [pictilisib]
Summary of the method: as §1

[13] = compound: C[C@@H](Oc1cc(-c2cnn(C3CCNCC3)c2)cnc1N)c1c(Cl)ccc(F)c1Cl [crizotinib]
Summary of the method: as §1

[14] = compound: C[C@H](C1=CC=C(C=C1)C(=O)NC2=C3C=CNC3=NC=C2)N
Summary of the method: as §1

[15] = compound: C[C@H](Nc1ncnc2nc[nH]c12)c1cc2cccc(Cl)c2c(=O)n1-c1ccccc1 [duvelisib]
Summary of the method: as §1

[16] = compound: Cc1cc(Nc2cc(CN3CCOCC3)c3nc(C)c(Cc4ccc(Cl)cc4F)n3n2)n[nH]1 [gandotinib]
Summary of the method: as §1

[17] = compound: Cc1cc(Nc2cc(N3CCN(C)CC3)nc(Sc3ccc(NC(=O)C4CC4)cc3)n2)n[nH]1 [tozasertib]
Summary of the method: as §1

[18] = compound: Cc1ccc(-n2nc(C(C)(C)C)cc2NC(=O)Nc2ccc(OCCN3CCOCC3)c3ccccc23)cc1 [doramapimod]
Summary of the method: as §1

[19] = compound: Cc1ccc(NC(=O)c2ccc(CN3CC[C@H](N(C)C)C3)c(C(F)(F)F)c2)cc1Nc1nccc(-c2cncnc2)n1 [bafetinib]
Summary of the method: as §1

[20] = compound: Cc1cccc(CC(=O)N2CCc3c2ccc(-c2cn(C)c4ncnc(N)c24)c3F)n1
Summary of the method: as §1

Measured: log2 fold change

SLC9A3R2 (UniProt Q15599)
inactive: [1] -0.032 | [2] -0.009 | [3] 0.027 | [4] -0.002 | [5] -0.028 | [6] -0.012 | [7] -0.072 | [8] 0.01 | [9] 0.013 | [10] -0.008 | [11] -0.038 | [12] -0.002 | [13] 0.026 | [14] -0.148 | [15] -0.005 | [16] 0.041 | [17] 0.019 | [18] 0.044 | [19] -0.004 | [20] 0.01

SLC39A14 (UniProt Q15043)
inactive: [1] 0.014 | [2] 0.035 | [3] 0.017 | [4] -0.035 | [5] 0.006 | [6] 0.011 | [7] -0.04 | [8] 0.008 | [9] 0.016 | [10] 0.066 | [11] 0.018 | [12] 0.01 | [13] 0.02 | [14] 0.038 | [15] 0.003 | [16] 0.014 | [17] -0.003 | [18] 0.015 | [19] -0.066 | [20] -0.04

SLC26A6 (UniProt Q9BXS9)
inactive: [1] -0.095 | [2] -0.05 | [3] -0.004 | [4] 0.055 | [5] 0.086 | [6] -0.016 | [7] -0.111 | [8] 0.06 | [9] -0.056 | [10] -0.022 | [11] -0.009 | [12] 0.05 | [13] -0.023 | [14] 0.016 | [15] 0.067 | [16] 0.051 | [17] 0.047 | [18] -0.003 | [19] -0.003 | [20] 0.118

SLC25A6 (UniProt P12236)
inactive: [1] -0.011 | [2] 0.051 | [3] 0.022 | [4] -0.014 | [5] 0.031 | [6] -0.009 | [7] 0.067 | [8] 0.064 | [9] 0.012 | [10] 0 | [11] -0.016 | [12] 0.003 | [13] 0.033 | [14] -0.068 | [15] -0.011 | [16] 0.04 | [17] -0.016 | [18] -0.017 | [19] -0.042 | [20] 0.038

SLC25A32 (UniProt Q9H2D1)
inactive: [1] -0.05 | [2] 0.037 | [3] -0.01 | [4] 0.03 | [5] 0.052 | [6] 0.04 | [7] 0.01 | [8] 0.036 | [9] 0.001 | [10] -0.033 | [11] -0.032 | [12] -0.005 | [13] -0.017 | [14] -0.151 | [15] -0.014 | [16] 0.098 | [17] -0.038 | [18] -0.019 | [19] -0.022 | [20] 0.1

SLC35A2 isoform 4 (UniProt P78381)
inactive: [1] -0.009 | [2] -0.061 | [3] -0.029 | [4] 0.001 | [5] -0.029 | [6] 0.006 | [7] 0.002 | [8] -0.008 | [9] 0.141 | [10] 0.102 | [11] 0.062 | [12] 0.02 | [13] 0.002 | [14] 0.086 | [15] -0.031 | [16] -0.074 | [17] -0.015 | [18] -0.023 | [19] 0.121 | [20] -0.046

SMAP1 isoform 2 (UniProt Q8IYB5)
inactive: [1] -0.032 | [2] -0.009 | [3] -0.001 | [4] -0.025 | [5] 0.001 | [6] 0.028 | [7] -0.046 | [8] 0.003 | [9] -0.017 | [10] 0.007 | [11] -0.053 | [12] -0.011 | [13] 0.033 | [14] 0.04 | [15] -0.021 | [16] 0.014 | [17] 0.03 | [18] 0.066 | [19] 0.032 | [20] -0.067

SLC7A6 (UniProt Q92536)
inactive: [1] -0.085 | [2] 0.055 | [3] -0.121 | [4] -0.013 | [5] 0.03 | [6] 0.091 | [7] -0.02 | [8] -0.092 | [9] 0.016 | [10] 0.225 | [11] 0.017 | [12] -0.002 | [13] 0.054 | [14] -0.137 | [15] -0.011 | [16] 0.116 | [17] -0.114 | [18] 0.1 | [19] -0.019 | [20] 0.058

SLC4A2 (UniProt P04920)
inactive: [1] 0.016 | [2] -0.024 | [3] -0.022 | [4] 0.058 | [5] 0.026 | [6] -0.008 | [7] -0.154 | [8] 0.009 | [9] -0.001 | [10] 0.087 | [11] 0.008 | [12] -0.011 | [13] 0.006 | [14] -0.037 | [15] -0.052 | [16] -0.013 | [17] -0.003 | [18] 0.056 | [19] -0.028 | [20] 0.037

SMAD2 (UniProt Q15796)
inactive: [1] -0.058 | [2] 0.009 | [3] 0.167 | [4] 0.01 | [5] 0.038 | [6] -0.01 | [7] 0.03 | [8] -0.069 | [9] 0.006 | [10] 0.016 | [11] -0.006 | [12] -0.042 | [13] -0.055 | [14] -0.073 | [15] -0.066 | [16] -0.006 | [17] -0.027 | [18] -0.025 | [19] -0.005 | [20] 0.06

SLC38A10 (UniProt Q9HBR0)
inactive: [1] -0.036 | [2] 0.074 | [3] -0.015 | [4] 0.023 | [5] 0.04 | [6] 0.037 | [7] -0.06 | [8] -0.032 | [9] 0.032 | [10] -0.046 | [11] 0.006 | [12] -0.069 | [13] 0.009 | [14] -0.136 | [15] 0.018 | [16] 0.068 | [17] -0.061 | [18] -0.087 | [19] -0.044 | [20] 0.091

SMAP2 (UniProt Q8WU79)
inactive: [1] 0.017 | [2] -0.002 | [3] -0.058 | [4] 0.024 | [5] -0.086 | [6] 0.047 | [7] -0.037 | [8] -0.004 | [9] 0.01 | [10] -0.03 | [11] -0.017 | [12] -0.164 | [13] 0.102 | [14] 0.031 | [15] -0.008 | [16] -0.008 | [17] 0.054 | [18] -0.019 | [19] 0.051 | [20] -0.032

SMAD9 (UniProt O15198)
inactive: [1] 0.008 | [2] -0.075 | [3] 0.089 | [4] -0.081 | [5] 0.011 | [6] 0.014 | [7] -0.014 | [8] 0.052 | [9] 0.047 | [10] -0.028 | [11] -0.056 | [12] -0.036 | [13] -0.027 | [14] -0.047 | [15] 0.091 | [16] 0.077 | [17] 0.091 | [18] 0.024 | [19] 0.014 | [20] -0.019

SLC25A12 (UniProt O75746)
inactive: [1] 0.002 | [2] 0.051 | [3] 0.02 | [4] 0.013 | [5] -0.011 | [6] -0.008 | [7] 0.034 | [8] -0.018 | [9] 0.012 | [10] -0.016 | [11] 0 | [12] 0.015 | [13] 0.042 | [14] -0.027 | [15] -0.005 | [16] 0.005 | [17] -0.028 | [18] -0.068 | [19] -0.038 | [20] 0.021

SLC30A5 (UniProt Q8TAD4)
inactive: [1] -0.017 | [2] 0.116 | [3] -0.011 | [4] 0.075 | [5] -0.026 | [6] 0.069 | [7] -0.157 | [8] 0.071 | [9] -0.142 | [10] 0.001 | [11] -0.071 | [12] -0.024 | [13] -0.152 | [14] -0.114 | [15] 0.003 | [16] 0.038 | [17] -0.012 | [18] -0.027 | [19] -0.063 | [20] 0.055

Looked up one by one from above, 2 records:
SMAD9 (UniProt O15198)
inactive: [1] 0.008 | [2] -0.075 | [3] 0.089 | [4] -0.081 | [5] 0.011 | [6] 0.014 | [7] -0.014 | [8] 0.052 | [9] 0.047 | [10] -0.028 | [11] -0.056 | [12] -0.036 | [13] -0.027 | [14] -0.047 | [15] 0.091 | [16] 0.077 | [17] 0.091 | [18] 0.024 | [19] 0.014 | [20] -0.019

SMAP2 (UniProt Q8WU79)
inactive: [1] 0.017 | [2] -0.002 | [3] -0.058 | [4] 0.024 | [5] -0.086 | [6] 0.047 | [7] -0.037 | [8] -0.004 | [9] 0.01 | [10] -0.03 | [11] -0.017 | [12] -0.164 | [13] 0.102 | [14] 0.031 | [15] -0.008 | [16] -0.008 | [17] 0.054 | [18] -0.019 | [19] 0.051 | [20] -0.032

Further results follow.

SLC25A22 (UniProt Q9H936)
inactive: [1] -0.026 | [2] -0.01 | [3] 0.001 | [4] 0.041 | [5] 0.018 | [6] 0.021 | [7] 0.008 | [8] 0.037 | [9] 0.02 | [10] 0.008 | [11] 0.003 | [12] 0.003 | [13] 0.041 | [14] -0.03 | [15] -0.012 | [16] -0.004 | [17] 0.017 | [18] 0.011 | [19] -0.015 | [20] 0.023
